PMC3892156
Numbering of substitutions follows the chain as printed. No constants are given. Whether binding was seen depends on the method and setting. Binding seen in cells or lysates may run through a third protein. Some results given as binding are weak or reduced against the parent protein; the word gives no strength. Where a sequence is shown, tags or fusion partners need not be part of it.

The chains behind the UniProt entries cited, without tags or fusion partners. Where a name states a change or a piece, a line headed by the entry shows the natural chain unless it says otherwise.
UniProt P27112: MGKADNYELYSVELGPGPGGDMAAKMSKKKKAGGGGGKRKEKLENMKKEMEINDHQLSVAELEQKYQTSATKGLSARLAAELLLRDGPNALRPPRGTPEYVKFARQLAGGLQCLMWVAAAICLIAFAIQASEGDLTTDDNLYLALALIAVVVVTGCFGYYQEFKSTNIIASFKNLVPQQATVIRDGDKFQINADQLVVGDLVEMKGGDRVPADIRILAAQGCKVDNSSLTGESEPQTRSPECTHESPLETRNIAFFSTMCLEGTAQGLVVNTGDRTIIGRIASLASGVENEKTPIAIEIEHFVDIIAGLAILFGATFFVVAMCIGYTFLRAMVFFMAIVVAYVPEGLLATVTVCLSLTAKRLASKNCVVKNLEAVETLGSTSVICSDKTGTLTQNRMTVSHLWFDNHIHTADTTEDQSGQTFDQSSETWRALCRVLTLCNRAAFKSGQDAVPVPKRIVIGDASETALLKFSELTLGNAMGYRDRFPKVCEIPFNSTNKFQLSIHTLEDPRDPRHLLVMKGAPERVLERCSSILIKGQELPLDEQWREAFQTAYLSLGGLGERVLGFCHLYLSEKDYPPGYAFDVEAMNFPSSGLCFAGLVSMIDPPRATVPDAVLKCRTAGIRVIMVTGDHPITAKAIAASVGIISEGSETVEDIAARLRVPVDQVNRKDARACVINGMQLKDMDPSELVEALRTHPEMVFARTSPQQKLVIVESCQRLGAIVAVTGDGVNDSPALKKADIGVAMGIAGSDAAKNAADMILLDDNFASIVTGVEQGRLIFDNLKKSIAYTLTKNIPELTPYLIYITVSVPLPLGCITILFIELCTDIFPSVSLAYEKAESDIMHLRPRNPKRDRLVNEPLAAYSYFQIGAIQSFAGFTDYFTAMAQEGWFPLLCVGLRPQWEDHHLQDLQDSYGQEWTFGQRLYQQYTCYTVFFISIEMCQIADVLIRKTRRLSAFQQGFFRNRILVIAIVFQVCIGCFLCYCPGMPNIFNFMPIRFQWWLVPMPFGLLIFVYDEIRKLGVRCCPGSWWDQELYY

How the values were obtained:
[1] = molecular target: T1, E211A-ClC-5 (rat ClC-5 mutant, Xpress- and His-tagged) (rat) (UniProt P51796); assay: co-IP; detergent extract (1% Nonidet P-40, 150 mM NaCl, 0.5 mM EDTA, 50 mM Tris-HCl pH 7.4) of membrane fractions of Tet-on HEK293 cells; anti-His tag antibody (for ClC-5) and protein A-agarose, 4°C; control without antibody; Western blot with anti-Xpress, anti-HKα (1H9), anti-NKα1
T1 sequence: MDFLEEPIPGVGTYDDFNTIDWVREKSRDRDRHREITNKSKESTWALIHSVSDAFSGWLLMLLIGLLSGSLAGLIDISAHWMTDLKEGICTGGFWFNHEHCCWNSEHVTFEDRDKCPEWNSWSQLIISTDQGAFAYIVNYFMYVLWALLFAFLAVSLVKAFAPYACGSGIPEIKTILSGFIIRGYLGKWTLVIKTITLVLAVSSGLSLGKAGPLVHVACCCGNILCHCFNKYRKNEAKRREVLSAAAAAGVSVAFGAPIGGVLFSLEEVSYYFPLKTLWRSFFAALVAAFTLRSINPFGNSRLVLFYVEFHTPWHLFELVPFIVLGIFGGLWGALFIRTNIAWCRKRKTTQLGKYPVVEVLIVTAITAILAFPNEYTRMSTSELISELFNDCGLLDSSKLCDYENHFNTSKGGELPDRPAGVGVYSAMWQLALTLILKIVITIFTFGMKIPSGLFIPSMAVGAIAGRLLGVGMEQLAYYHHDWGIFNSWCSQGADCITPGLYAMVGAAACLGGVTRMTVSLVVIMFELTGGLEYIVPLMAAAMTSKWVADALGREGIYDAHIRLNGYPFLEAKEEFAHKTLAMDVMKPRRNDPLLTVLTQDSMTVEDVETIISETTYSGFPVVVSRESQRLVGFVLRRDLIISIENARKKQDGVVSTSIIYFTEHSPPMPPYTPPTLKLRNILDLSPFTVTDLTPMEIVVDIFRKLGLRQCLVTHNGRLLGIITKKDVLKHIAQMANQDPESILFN

[2] = molecular target: T2, WT-ClC-5 (rat ClC-5, Xpress- and His-tagged) (rat) (UniProt P51796); assay: as above
T2 sequence: T1 sequence with A211E

binding [1]: binds
binding [2]: binds
Substance: gastric H+,K+-ATPase (α- and β-subunits) stably expressed in HEK293 cells (from UniProt P27112 1-1035; P18597 1-291) (complex)
